Test results: the supplement of paper PMC12823440, “Inhibitors supercharge kinase turnover through native proteolytic circuits” (Nature, 2025)
Counter-ions that a name gives are not always drawn. The list shows a part of the results. The calls rarely recur for the same compound in another form.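 In K562 cells expressing nanoluciferase-fused kinases, luminescence was recorded at 4 h intervals between 2 and 18 h, normalized as percent of control with DMSO at 100% and a positive control at 0%. A significant (2 sigma) signal drop marks a time point as decreased. The authors' rule for a hit is not shown and takes in more than the number of time points.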

Protein sequences, listed by entry. Tags and fused reporters are not part of them. Lines headed by an entry give the natural chain unless they say otherwise; changes in a name come on top.
UniProt Q13131: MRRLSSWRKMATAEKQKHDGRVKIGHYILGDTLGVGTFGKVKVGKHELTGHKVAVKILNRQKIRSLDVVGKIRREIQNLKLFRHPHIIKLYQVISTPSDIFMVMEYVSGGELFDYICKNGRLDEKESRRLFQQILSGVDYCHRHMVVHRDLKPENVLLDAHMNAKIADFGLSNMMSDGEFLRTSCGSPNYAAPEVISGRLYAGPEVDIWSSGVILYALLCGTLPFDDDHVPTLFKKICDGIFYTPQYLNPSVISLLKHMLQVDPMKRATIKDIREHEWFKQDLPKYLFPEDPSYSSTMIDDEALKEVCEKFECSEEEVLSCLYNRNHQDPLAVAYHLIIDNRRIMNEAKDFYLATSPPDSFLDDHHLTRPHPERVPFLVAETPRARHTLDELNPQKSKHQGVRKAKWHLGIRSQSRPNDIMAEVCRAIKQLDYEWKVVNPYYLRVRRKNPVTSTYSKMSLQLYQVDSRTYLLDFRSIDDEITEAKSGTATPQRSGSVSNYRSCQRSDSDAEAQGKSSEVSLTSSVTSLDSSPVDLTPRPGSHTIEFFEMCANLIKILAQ

Target: PRKAA1 (UniProt Q13131)
Assay: kinase-Nluc reporter destabilization hit call (1 = scored as downregulated) (binary); higher = compound decreases kinase abundance
Details: K562; 2-18 h

| Compound | kinase-Nluc reporter destabilization hit call |
| --- | --- |
| CCOC(=O)N1CCN(C(=O)[C@H](Cc2cccc(C(=N)N)c2)NS(=O)(=O)c2c(C(C)C)cc(C(C)C)cc2C(C)C)CC1 (10 µM) | inactive: 0 |
| CN1CCN(c2cnc3c(C4CCN(C(=O)c5ccc(OC(F)(F)F)cc5N)CC4)ncnc3c2)CC1 (10 µM) | inactive: 0 |
| Cc1[nH]c(/C=C2\C(=O)Nc3ccccc32)c(C)c1CCC(=O)O [Orantinib] (10 µM) | inactive: 0 |
| Cn1nccc1Nc1nccc(-c2ccn([C@H](CO)c3ccc(Cl)c(F)c3)c(=O)c2)n1 [Ravoxertinib hydrochloride] (10 µM) | inactive: 0 |
| CCCCCCCCCCCCC/C=C/[C@@H](O)[C@@H](N)CO [D-erythro-Sphingosine] (2.5 µM) | inactive: 0 |
